Source: article doi:10.1101/2022.02.08.479506
No constants are given. Whether binding was seen depends on the method and setting. Some binding calls cover weakened binding; strength is not graded here.

Protein sequences, listed by entry. Tags and fused reporters are not part of them. Residues count along the entry.
UniProt P09382, residues 2-135: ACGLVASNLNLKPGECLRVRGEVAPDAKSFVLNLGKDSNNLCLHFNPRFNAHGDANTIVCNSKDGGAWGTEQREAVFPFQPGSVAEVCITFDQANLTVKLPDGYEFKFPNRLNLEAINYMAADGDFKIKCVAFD

Experiments:
Galectin-1 [1] = molecular target: Galectin-1 (UniProt P09382); assay: NMR titration
Galectin-1 [2] = molecular target: Galectin-1 (UniProt P09382); assay: NMR 15N relaxation
Galectin-1 [3] = molecular target: Galectin-1 (UniProt P09382); assay: NMR titration; remark: listed apart in the source

Measured: binding

SRSSLRSRWGRFLLQRGSWTGPRC (peptide, UniProt P15814 59-82) [λ5 unique region peptide (residue 22-45) of the pre-B cell receptor]
binds: all assays above
